The list shows only some results of the screen, not a fair sample: it gathers tests that were run many times, whatever their T/C, doses with no T/C, and many T/C values between a quarter and a half above the control. Other doses and runs of a compound stand elsewhere. T/C is the treated group as % of the vehicle group. Some doses have a count of surviving animals in place of a T/C: the source holds a T/C of zero for them, seemingly a mark for toxic or unscored doses. Some doses without a T/C left all or most animals alive at the check, yet need not have been tolerated: the source hardly ever lists a survival T/C far under the control, and the zero likely stands for such cases as well. Survivors were counted at the toxicity check, usually on the fifth day, unless a day is given; later deaths do not show. Schedules are NCI's codes, taken here to give the interval after Q, in days (D) or hours (H), and the number of doses after X. Where survival is the endpoint, the PubChem record calls one and a half times the control and up active, and a quarter to a half above the control has no call in these data; cut-offs in other NCI protocols can differ. Some T/C values are followed by the survivors on the day toxicity was checked, most often the fifth; without a count, all were alive then.

The test system of this assay is BDF1 mice, P388 leukemia ip, median survival T/C. In words: NCI In Vivo Anticancer Drug Screen. Data for tumor model P388 Leukemia (intraperitoneal) in B6D2F1 (BDF1) mice. The settings on record: T/C endpoint: median survival time, higher T/C = longer survival. The method, boiled down: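 Mice carrying the transplantable tumour receive compound or vehicle. Survival is followed in each arm, and the treated measure is divided by the vehicle measure.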

[1] abbreviates: dose: 50.0 mg/kg/injection, schedule: Q01DX009 (ip), vehicle: saline with Tween-80.
[2] abbreviates: dose: 100.0 mg/kg/injection, schedule: Q01DX009 (ip), vehicle: saline with Tween-80.
Where [3] appears, read: dose: 200.0 mg/kg/injection, schedule: Q01DX009 (ip), vehicle: saline with Tween-80.
[4] abbreviates: dose: 200.0 mg/kg/injection, schedule: Q01DX009 (ip), vehicle: Klucel (hydroxypropylcellulose) (HPC).
Where [5] appears, read: dose: 400.0 mg/kg/injection, schedule: Q01DX009 (ip), vehicle: saline with Tween-80.
Where [6] appears, read: dose: 400.0 mg/kg/injection, schedule: Q01DX009 (ip), vehicle: saline.
Setting [7] is: dose: 200.0 mg/kg/injection, schedule: Q04DX003 (ip), vehicle: saline with Tween-80.

As for `CCN1CSC(=S)N(CC)C1`, the survivor count is 5 of 6 (dose: 100.0 mg/kg/injection, schedule: Q04DX003 (ip), vehicle: Klucel (hydroxypropylcellulose) (HPC)) and 3 of 6 (dose: 150.0 mg/kg/injection, schedule: Q01DX009 (ip), vehicle: saline with Tween-80).
As for `CCCCC[C@@H](CN(C)C)[C@H](O)/C=C/c1ccc(Cl)cc1`, the T/C was 127 % of control (dose: 12.5 mg/kg/injection, schedule: Q01DX009 (ip), vehicle: Klucel (hydroxypropylcellulose) (HPC)) and 127 % of control (dose: 25.0 mg/kg/injection, schedule: Q01DX009 (ip), vehicle: Klucel (hydroxypropylcellulose) (HPC)).
On to `O=C(O)c1cc(C(Cl)(Cl)Cl)ccc1C(Cl)(Cl)Cl`, for which, where the note is “dose: 200.0 mg/kg/injection, schedule: Q04DX003 (ip), vehicle: saline sonified”, the T/C was 127 % of control [5 of 6 alive].
Take `COC(=O)c1c(C)ccc2c(O)c3c(cc12)C(=O)c1c2c(cc(O)c1C3=O)C1(C)OC(C)(O2)C(O)C(N(C)C)C1O` (stereo not drawn): the T/C (dose: 35.0 mg/kg/injection, schedule: Q01DX009 (ip), vehicle: Klucel (hydroxypropylcellulose) (HPC)) was 133 % of control.
`NC(=O)C1(NC2CCCCC2)CCN(Cc2ccccc2)CC1`: the survivor count reads like this: (dose: 200.0 mg/kg/injection, schedule: Q01DX009 (ip), vehicle: gum acacia) 3 of 6; (dose: 200.0 mg/kg/injection, schedule: Q04DX003 (ip), vehicle: gum acacia) 4 of 6.
Regarding `C/C=C/C(OCC)OCC`, the T/C (dose: 400.0 mg/kg/injection, schedule: Q01DX009 (ip), vehicle: water) is 127 % of control. Also, the survivor count (dose: 400.0 mg/kg/injection, schedule: Q04DX003 (ip), vehicle: water) was 1 of 6.
For `CCCCCCC(Nc1ncnc(Cl)c1N)C(C)O` (stereo not drawn), the survivor count reads like this: under setting [1], 3 of 6; under setting [2], 0 of 6; under setting [3], 0 of 6.
`CCOC(=O)c1cc2nc3ccccn3c(=O)c2cc1N`: the T/C under setting [1] is 125 % of control.
As for `CCCCCCCCO/N=C\c1c2c(O)c3c(O)c(C)c4c(c3c1O)C(=O)C(C)(O/C=C\C(OC)C(C)C(OC(C)=O)C(C)C(O)C(C)C(O)C(C)/C=C\C=C(\C)C(=O)N2)O4` (stereo not drawn), the survivor count (dose: 400.0 mg/kg/injection, schedule: Q01DX009 (ip), vehicle: Klucel (hydroxypropylcellulose) (HPC)) was 4 of 6.
Turning to `[C-]#[N+]C(=C\c1ccc(O)cc1)/C(=C/c1ccc(O)cc1)[N+]#[C-]`, the survivor count runs as follows: (dose: 75.0 mg/kg/injection, schedule: Q01DX009 (ip), vehicle: other) 0 of 6; (dose: 150.0 mg/kg/injection, schedule: Q01DX009 (ip), vehicle: other) 0 of 6; (dose: 300.0 mg/kg/injection, schedule: Q01DX009 (ip), vehicle: other) 0 of 6.
As for `CCCCNC(C)(C)C(SSSC(c1ccc(C(F)(F)F)cc1)C(C)(C)NCCCC)c1ccc(C(F)(F)F)cc1` (stereo not drawn), where the note is “dose: 200.0 mg/kg/injection, schedule: Q04DX003 (ip), vehicle: saline”, the T/C is 125 % of control.
For `COC(OC)c1[nH]c(=S)[nH]c(=O)c1Cc1cccc(Cl)c1`, the T/C under setting [4] was 127 % of control.
Consider `NC(=S)S/C=C/C(=O)O`, for which, under setting [5], the survivor count is reported as 0 of 6.
As for `COc1cc2c(c(OC)c1OC)-c1ccc(SC)c(=O)cc1[C@@H](NC1OC(CO)C(O)C(O)C1O)CC2` (stereo partly drawn), the survivor count (dose: 35.0 mg/kg/injection, schedule: Q01DX009 (ip), vehicle: saline) was 6 of 6; the survivor count (dose: 50.0 mg/kg/injection, schedule: Q01DX009 (ip), vehicle: saline) is reported as 5 of 6; the survivor count (dose: 75.0 mg/kg/injection, schedule: Q01DX009 (ip), vehicle: saline) is 5 of 6; the survivor count (dose: 100.0 mg/kg/injection, schedule: Q01DX009 (ip), vehicle: saline) was 3 of 6; the survivor count (dose: 200.0 mg/kg/injection, schedule: Q01DX009 (ip), vehicle: saline) was 0 of 6; the survivor count under setting [6] is given as 0 of 6.
As for `Clc1ccc(-c2cc(=[N+]3CCCCC3)ss2)cc1`, the survivor count is listed as 6 of 6 (dose: 6.25 mg/kg/injection, schedule: Q04DX003 (ip), vehicle: saline with Tween-80); 3 of 6 (dose: 12.5 mg/kg/injection, schedule: Q01DX009 (ip), vehicle: saline with Tween-80); 6 of 6 under setting [2]; 0 of 6 under setting [3]; 4 of 6 under setting [7]; 0 of 6 (dose: 400.0 mg/kg/injection, schedule: Q04DX003 (ip), vehicle: saline with Tween-80).
With `c1ccc2c(c1)ccc1cc3c(ccc4ccccc43)cc12`, under setting [5], the survivor count is listed as 5 of 6.
`O=[N+]([O-])/C=C/c1c(Cl)cccc1Cl`: the survivor count (dose: 100.0 mg/kg/injection, schedule: Q04DX003 (ip), vehicle: other) is recorded as 5 of 6; the survivor count (dose: 200.0 mg/kg/injection, schedule: Q04DX003 (ip), vehicle: other) is 0 of 6; the survivor count (dose: 400.0 mg/kg/injection, schedule: Q04DX003 (ip), vehicle: other) is listed as 0 of 6.
With `O=C(Nc1ncc([N+](=O)[O-])s1)c1cccc([N+](=O)[O-])c1`, the survivor count under setting [1] is on record as 3 of 6.
As to `Cc1ccc(C)c(CCCC(=O)O)c1`, the survivor count under setting [5] is 1 of 6.
For `O=C(N=Nc1c(O)[nH]c2ccccc12)C(=O)Nc1cccc(C(F)(F)F)c1`, the survivor count by setting is: under setting [2], 6 of 6; under setting [3], 6 of 6.
Take `CN1C(=O)CC2(CCN(CCCC(=O)c3ccc(F)cc3)CC2)C1=O`: the survivor count reads like this: (dose: 100.0 mg/kg/injection, schedule: Q01DX009 (ip), vehicle: Klucel (hydroxypropylcellulose) (HPC)) 4 of 6; under setting [4], 0 of 6.
Regarding `COC1=C(N)C(=O)c2ncccc2C1=O`, the T/C (dose: 16.0 mg/kg/injection, schedule: Q01DX010 (ip), vehicle: acetone) was 127 % of control. Besides, the survivor count (dose: 32.0 mg/kg/injection, schedule: Q01DX010 (ip), vehicle: acetone) is given as 0 of 6.
With `CCOC(=O)c1[nH]cnc1/N=N/N(C)CCO`, the T/C is, setting by setting: (dose: 33.0 mg/kg/injection, schedule: Q01DX009 (ip), vehicle: saline) 135 % of control; (dose: 264.0 mg/kg/injection, schedule: Q01DX009 (ip), vehicle: saline) 131 % of control; under setting [5], 136 % of control; under setting [6], 145 % of control. Where the note is “dose: 132.0 mg/kg/injection, schedule: Q01DX009 (ip), vehicle: saline”, the survivor count was 6 of 6.
Consider `Cc1ccc(S(=O)(=O)Nc2ccc([N+](=O)[O-])cc2[N+](=O)[O-])cc1`, for which the survivor count under setting [2] is recorded as 3 of 6.
Take `NC(=S)N/N=C/c1ccccn1`: the T/C was 125 % of control (dose: 0.5 mg/kg/injection, schedule: Q01DX010 (ip), vehicle: carboxymethylcellulose (CMC)); 130 % of control (dose: 0.94 mg/kg/injection, schedule: Q01DX010 (ip), vehicle: saline); 140 % of control (dose: 1.88 mg/kg/injection, schedule: Q01DX010 (ip), vehicle: saline); 125 % of control (dose: 4.0 mg/kg/injection, schedule: Q01DX010 (ip), vehicle: carboxymethylcellulose (CMC)); 129 % of control (dose: 7.5 mg/kg/injection, schedule: Q01DX010 (ip), vehicle: saline); 133 % of control (dose: 15.0 mg/kg/injection, schedule: Q01DX010 (ip), vehicle: saline). Besides, the survivor count (dose: 16.0 mg/kg/injection, schedule: Q01DX010 (ip), vehicle: carboxymethylcellulose (CMC)) was 3 of 6.
`OCCC1(CCO)CCCCC1`: the survivor count reads like this: (dose: 80.0 mg/kg/injection, schedule: Q01DX009 (ip), vehicle: saline with Tween-80) 6 of 6; under setting [7], 0 of 6.
In the case of `CCCCC(I)C(C)(C)[n+]1ccccc1` (stereo not drawn), the survivor count by setting is: (dose: 12.5 mg/kg/injection, schedule: Q04DX003 (ip), vehicle: saline with Tween-80) 6 of 6; under setting [1], 5 of 6.
With `O=C(Nc1ccc(Cl)cc1C(=O)c1ccccn1)c1ccccc1`, the T/C (dose: 100.0 mg/kg/injection, schedule: Q04DX003 (ip), vehicle: saline with Tween-80) was 130 % of control.

For the origin of these results see PubChem BioAssay AID328 (DTP/NCI, 2004).
